In PubChem BioAssay AID662 (National Center for Advancing Translational Sciences (NCATS), 2007):
Some of the results follow. Shown are side measurements of this screen, not its main read-out; they come without a call. Compounds called inactive in the main read-out are mostly missing here. The note in brackets gives the kind of curve behind each potency; many fits are weak.

Assay: Cell signaling CRE-BLA (Fsk stim)
Settings: CHO CRE-bla reporter (cAMP response element driving beta-lactamase), forskolin EC10, beta-lactamase ratio; measured here: 460 nm blue channel
Text: NIH Molecular Libraries Screening Centers Network [MLSCN]
NIH Chemical Genomics Center [NCGC]
Assay Provider: Marshall W. Nirenberg, U.S. National heart lung & blood institute
Memories persist for different lengths of time, from seconds or minutes to a lifetime. There are two kinds of memory: short-term memory (STM) and long-term memory (LTM). STM lasts for minutes to hours, which maybe mediated by modifications of molecules involved in synaptic functions. LTM lasts for days or longer, and may be due to the formation of new synapses or restructuring of existing synapses. LTM, but not STM, requires gene transcription and synthesis of proteins. CREB (cyclic-AMP Responsive Element Binding Protein) is one of the candidates plays an important role for enhancement of some types of LTM. CREB, a family of transcription factors, regulates the transcription of genes containing cAMP Responsive Elements (CRE). CRE is a nucleotide sequence often found in the promoter regions of genes that are binding sites for CREB.
Using a beta-lactamase reporter-gene under control of cAMP responsive element, a cell-based assay [CellSensor(TM) CRE-bla CHO developed by Invitrogen Corp.] was used to measure forskolin-induced signaling. Library compounds were measured for their ability to modulate positively or negatively the action of EC10 NKH 477, a water soluble forskolin, on reporter gene activity. Compounds were screened in a titration series in 1536-well format. Positive and negative modulators were identified based on the AC50 values derived from the screening data.
NCGC Assay Protocol Summary
2000 cells/5uL in Opti-MEM medium containing 0.5% dialyzed FBS, 0.1 mM NEAA, 1 mM sodium pyruvate and 10 mM HEPES was dispensed into 1536-well plates and cells were cultured at 37 degrees Celsius overnight. […] And then the plates were incubated at 37 degrees Celsius for 3 hours. 1 uL of CCF4-dye mixture was added to each well. After incubated at room temperature for 2 hours the plates were measured on an EnVision plate reader at Excitation 405nm, Emission1=460nm and Emission 2=530nm. The %Activity was determined from the ratio of 460nm/530nm.
Keywords: NIH Roadmap, MLSCN, MLSMR, qHTS, NCGC, CRE, beta-lactamase reporter-gene assay.

SMILES	AC50
Cc1ccc2cc(CCNS(=O)(=O)c3ccc(F)cc3)c(=O)[nH]c2c1	12.6 µM [rising, partial curve]
COC(=O)c1[nH]c(=O)c2ccccc2c1OCc1ccccc1	0.316 µM [rising, full curve, poor fit]
CCn1nc(C(=O)OCC(=O)c2c[nH]c3ccccc23)c2ccccc2c1=O	6.31 µM [rising, partial curve]
O=C(Cn1cnc2c(nnn2Cc2ccc(F)cc2)c1=O)N1CCCCC1	0.0794 µM [rising, full curve, poor fit]
c1cncc(-c2ccc3ncnc(N4CCNCC4)c3c2)c1	10 µM [rising, partial curve]
N#CC(C#N)=NNc1ccc2cn[nH]c2c1	2.51 µM [falling, partial curve]
CCOC(=O)c1cnc2c(C#N)c(C)nn2c1-c1ccccc1	5.01 µM [rising, partial curve]
COc1ccc(-n2c(Cc3cccn3C)nnc2SCC(=O)Nc2cccc(OC)c2)cc1	6.31 µM [falling, partial curve]
COc1cc(C2=NOC(C(=O)NC3CCCCC3)C2)cc(OC)c1OC (stereo not drawn)	0.00398 µM [falling, full curve]
N#CCCn1c(=O)c(-c2ccc(Cl)cc2)nc2cnc(Oc3ccccc3)nc21	5.01 µM [rising, single point]
CCOC(=O)c1c(C)c(C(=O)Nc2cc(F)ccc2F)c(C)n1C	10 µM [rising, partial curve]
CNc1nc(Nc2ccc(C(C)=O)cc2)nc(OC(C(F)(F)F)C(F)(F)F)n1	0.631 µM [rising, full curve]
Cn1cccc1C(=O)N1CCC[C@@]2(CCN(Cc3cc(C(F)(F)F)cc(C(F)(F)F)c3)C2)C1	20 µM [rising, single point]
N#Cc1cccc(-c2nnc(SCc3ccccc3C#N)o2)c1	10 µM [rising, partial curve]
CCOC(=O)c1cnc(Nc2ccc(OCC)cc2)nc1C	5.01 µM [falling, single point]
CCCOc1ccc(CSc2nnc(CCC)n2N)cc1	3.98 µM [falling, partial curve]
COc1ccc(Cc2nnc(NC(=O)Cc3cccs3)s2)cc1OC	12.6 µM [rising, partial curve]
N#Cc1sc2nc(-c3ccccc3)cc(-c3ccco3)c2c1N	25.1 µM [rising, single point]
COc1ccccc1-n1c(SCC(=O)Nc2ccccc2C)nc(O)cc1=O	1 µM [falling, full curve, poor fit]
Cn1c(C(=O)N2CCN(C(=O)c3ccco3)CC2)cc2c(=O)n3ccccc3nc21	12.6 µM [rising, partial curve]
COc1ccc(CNc2ncncc2-c2cccc(NS(C)(=O)=O)c2)c(OC)c1	5.01 µM [rising, full curve]
Cc1cc2c(=O)n(CC(=O)N3CCN(c4ccccc4)CC3)cnc2s1	0.316 µM [falling, single point]

Retrieved one by one from the list above, 2 records:
SMILES	AC50
c1cncc(-c2ccc3ncnc(N4CCNCC4)c3c2)c1	10 µM [rising, partial curve]
CCCOc1ccc(CSc2nnc(CCC)n2N)cc1	3.98 µM [falling, partial curve]

Next records follow.

SMILES	AC50
N#Cc1c(NC(=O)CSc2ncc(-c3ccccc3)n2CC2CCCO2)sc2c1CCCC2 (stereo not drawn)	3.16 µM [rising, single point]
COc1ncc2nc(C)c(=O)n(CCc3ccccc3)c2n1	12.6 µM [rising, partial curve]
O=C(O)CCCC(=O)N1CCN(c2nc(-c3ccccc3)c3ccccc3n2)CC1	10 µM [rising, partial curve]
CC1CCCN(C(=O)C2CCN(CCCc3ccccc3)CC2)C1 (stereo not drawn)	5.01 µM [falling, single point]
CC(=NCc1cccnc1)C1=C(O)c2ccccc2C1=O	12.6 µM [rising, single point]
COc1ccc(CCNC(=O)CC2Oc3ccc(Cl)cc3NC2=O)cc1OC (stereo not drawn)	10 µM [rising, partial curve]
COc1ccc(C2SCCN2S(=O)(=O)c2ccccc2)cc1OC (stereo not drawn)	10 µM [rising, partial curve]
O=C(Nc1cccc2cccnc12)c1cccnc1	10 µM [rising, partial curve]
O=c1[nH]c(SCc2cccc(Cl)c2)nc2c1CCCC2	7.94 µM [rising, partial curve]
CC(C)n1c(=NC(=O)c2ccco2)c(C#N)cc2c(=O)n3ccccc3cc21	12.6 µM [rising, partial curve]
CC(=O)N1CCc2cc(S(=O)(=O)NC(CC(C)C)C(=O)N3CCc4ccccc4C3)ccc21 (stereo not drawn)	25.1 µM [rising, single point]
CCOc1ncccc1C(=O)OCC(=O)c1c(N)n(C)c(=O)n(C)c1=O	10 µM [rising, single point]
O=S(=O)(c1ccc(OCC(O)CNCc2ccco2)c(Cl)c1)N1CCOCC1 (stereo not drawn)	0.1 µM [falling, partial curve, poor fit]
CN1CCN(c2ncc3nc(CCc4ccccc4)c(=O)n(C4CC4)c3n2)CC1	10 µM [rising, partial curve]
CSc1cccc(NC(=O)CN(C2CCCCC2)S(C)(=O)=O)c1	7.94 µM [falling, partial curve, poor fit]
N#CCCn1c(=O)c(-c2ccc(F)cc2)nc2cnc(Oc3ccccc3)nc21	20 µM [rising, partial curve]
O=C(OCC(=O)N1CCN(C(=O)c2ccco2)CC1)c1cc(-c2ccccc2)nc2ccccc12	6.31 µM [rising, partial curve]
CC(C)(C)C(=O)NC(c1ccc(Cl)cc1)[C@]1(C)C[C@H]1C1CCCCC1 (stereo partly drawn)	20 µM [rising, single point]
O=c1cc(CNC2CCCCC2)c2ccccc2[nH]1	3.98 µM [falling, single point]
CC(C)=CCc1c(O)cc(O)c2c1O[C@H](c1ccccc1)CC2=O	31.6 µM [rising, single point]
CN1CCN(c2ncc3nc(-c4ccc(F)cc4)c(=O)n(C4CC4)c3n2)CC1	10 µM [rising, partial curve]

Molecules above with a CF3 group (two):
SMILES	AC50
CNc1nc(Nc2ccc(C(C)=O)cc2)nc(OC(C(F)(F)F)C(F)(F)F)n1	0.631 µM [rising, full curve]
Cn1cccc1C(=O)N1CCC[C@@]2(CCN(Cc3cc(C(F)(F)F)cc(C(F)(F)F)c3)C2)C1	20 µM [rising, single point]
